PubChem BioAssay AID504764 | Drosophila RNAi Screening Center | 2011
Assay: 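Genes whose knock-down alters Notch-dependent transcription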 (primary screen). Cells: Drosophila Kc167 cells. Reagents: long dsRNA against Drosophila genes. Timing: about 5 days (4 days dsRNA, then 24 h after transfection). Treatment: transfection of constitutively active membrane-tethered Notch lacking the extracellular domain, read 24 h later. Measured: 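Light from a Notch-responsive E(spl)m3 luciferase reporter under active Notch, with control-promoter and no-Notch reporter wells to normalise; raw counts from paired wells a and b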. Direction: induced reporter light, run 1, well a and induced reporter light, run 1, well b: higher = more light from the Notch target reporter with active Notch; control promoter light, run 1, well a and control promoter light, run 1, well b: higher = more light from the viral control promoter (cell number, transfection, viability); uninduced reporter light, run 1, well a: higher = more light from the Notch target reporter without active Notch. Active means: 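Wells with low control signal or poorly matching duplicates excluded; duplicates averaged; per source plate, z beyond ±2 for induced/control log2 ratio or beyond ±1.8 for induced/uninduced marks a hit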. Calls: active = modifier hit (raised or lowered Notch signal); inactive = not a hit.
The screen tested about 22,000 reagents; below is an unselected part of those that have a named target and a result. Of all reagents, 403 (1.9%) were called active. 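Unnormalised raw counts per well; ratio z-scores behind the hit calls and whether each hit raises or lowers signal are not deposited.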 Unmarked entries are inactive. Reagents against one gene are numbered here. Names joined by + are all predicted targets of the reagent. The record does not give: the amount of reagent.

no.	target	reagent	induced reporter light, run 1, well a	induced reporter light, run 1, well b	control promoter light, run 1, well a	control promoter light, run 1, well b	uninduced reporter light, run 1, well a
1	CG14237	1	1.21e5	53435	1.39e5	1.15e5	10810
2	Nt5a	1	1.24e5	1.17e5	2.10e5	2.33e5	8630
3	MED16	1	10678	8280	15030	15705	645
4	CG7322	1	1.16e5	1.08e5	1.11e5	1.25e5	9480
5	CG30467	1	90900	98750	89415	91770	7140
6	CG34451	1	1.91e5	1.97e5	3.04e5	3.18e5	20300
7	CG34451	2	1.81e5	2.20e5	2.29e5	2.20e5	19142
8	CG6356	1	1.53e5	1.50e5	1.84e5	1.87e5	13845

A portion from the list above, as a working copy:
no.	target	reagent	induced reporter light, run 1, well a	induced reporter light, run 1, well b	control promoter light, run 1, well a	control promoter light, run 1, well b	uninduced reporter light, run 1, well a
6	CG34451	1	1.91e5	1.97e5	3.04e5	3.18e5	20300
7	CG34451	2	1.81e5	2.20e5	2.29e5	2.20e5	19142
8	CG6356	1	1.53e5	1.50e5	1.84e5	1.87e5	13845

The listing continues:
no.	target	reagent	induced reporter light, run 1, well a	induced reporter light, run 1, well b	control promoter light, run 1, well a	control promoter light, run 1, well b	uninduced reporter light, run 1, well a
9	nvy	1	65490	64390	42755	55300	4405
10	Myc	1	13288	13975	11640	12710	2440
11	Amy-d + Amy-p	1	1.05e5	1.24e5	1.07e5	1.46e5	12300
12	Esp	1	1.76e5	1.36e5	1.91e5	1.67e5	14960
13	CG2059	1	1.48e5	1.53e5	3.14e5	2.64e5	12105
14	CG8138	1	2.06e5	2.29e5	1.98e5	2.08e5	15065
15	CG5561	1	1.51e5	1.31e5	1.16e5	76110	10765
16	CG6015	1	1.05e5	1.01e5	1.29e5	1.40e5	7915
17	Nep3	1	82210	1.14e5	93755	1.04e5	10950
18	CG43066	1	89675	65675	95055	84340	7415
19	gcm2	1	1.16e5	1.55e5	72425	68625	16905
20	CG7304	1	1.83e5	1.39e5	1.74e5	1.86e5	8305
